{"sequences": {"note": "By UniProt entry, the sequences of proteins in these tests, tags left out. Where a name states a change or a piece, a line headed by the entry shows the natural chain unless it says otherwise.", "UniProt Q8RWM3": "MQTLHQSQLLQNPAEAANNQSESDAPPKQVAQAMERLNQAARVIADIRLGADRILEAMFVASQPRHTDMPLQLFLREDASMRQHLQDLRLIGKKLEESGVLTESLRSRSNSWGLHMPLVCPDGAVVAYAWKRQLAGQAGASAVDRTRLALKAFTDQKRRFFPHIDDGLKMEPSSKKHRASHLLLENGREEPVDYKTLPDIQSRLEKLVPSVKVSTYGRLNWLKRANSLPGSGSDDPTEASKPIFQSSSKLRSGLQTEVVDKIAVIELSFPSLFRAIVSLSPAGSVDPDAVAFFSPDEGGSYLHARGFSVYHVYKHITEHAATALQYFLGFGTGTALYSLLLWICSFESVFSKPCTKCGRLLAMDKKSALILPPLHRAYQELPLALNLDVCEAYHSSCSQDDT", "UniProt H3K2Y6": "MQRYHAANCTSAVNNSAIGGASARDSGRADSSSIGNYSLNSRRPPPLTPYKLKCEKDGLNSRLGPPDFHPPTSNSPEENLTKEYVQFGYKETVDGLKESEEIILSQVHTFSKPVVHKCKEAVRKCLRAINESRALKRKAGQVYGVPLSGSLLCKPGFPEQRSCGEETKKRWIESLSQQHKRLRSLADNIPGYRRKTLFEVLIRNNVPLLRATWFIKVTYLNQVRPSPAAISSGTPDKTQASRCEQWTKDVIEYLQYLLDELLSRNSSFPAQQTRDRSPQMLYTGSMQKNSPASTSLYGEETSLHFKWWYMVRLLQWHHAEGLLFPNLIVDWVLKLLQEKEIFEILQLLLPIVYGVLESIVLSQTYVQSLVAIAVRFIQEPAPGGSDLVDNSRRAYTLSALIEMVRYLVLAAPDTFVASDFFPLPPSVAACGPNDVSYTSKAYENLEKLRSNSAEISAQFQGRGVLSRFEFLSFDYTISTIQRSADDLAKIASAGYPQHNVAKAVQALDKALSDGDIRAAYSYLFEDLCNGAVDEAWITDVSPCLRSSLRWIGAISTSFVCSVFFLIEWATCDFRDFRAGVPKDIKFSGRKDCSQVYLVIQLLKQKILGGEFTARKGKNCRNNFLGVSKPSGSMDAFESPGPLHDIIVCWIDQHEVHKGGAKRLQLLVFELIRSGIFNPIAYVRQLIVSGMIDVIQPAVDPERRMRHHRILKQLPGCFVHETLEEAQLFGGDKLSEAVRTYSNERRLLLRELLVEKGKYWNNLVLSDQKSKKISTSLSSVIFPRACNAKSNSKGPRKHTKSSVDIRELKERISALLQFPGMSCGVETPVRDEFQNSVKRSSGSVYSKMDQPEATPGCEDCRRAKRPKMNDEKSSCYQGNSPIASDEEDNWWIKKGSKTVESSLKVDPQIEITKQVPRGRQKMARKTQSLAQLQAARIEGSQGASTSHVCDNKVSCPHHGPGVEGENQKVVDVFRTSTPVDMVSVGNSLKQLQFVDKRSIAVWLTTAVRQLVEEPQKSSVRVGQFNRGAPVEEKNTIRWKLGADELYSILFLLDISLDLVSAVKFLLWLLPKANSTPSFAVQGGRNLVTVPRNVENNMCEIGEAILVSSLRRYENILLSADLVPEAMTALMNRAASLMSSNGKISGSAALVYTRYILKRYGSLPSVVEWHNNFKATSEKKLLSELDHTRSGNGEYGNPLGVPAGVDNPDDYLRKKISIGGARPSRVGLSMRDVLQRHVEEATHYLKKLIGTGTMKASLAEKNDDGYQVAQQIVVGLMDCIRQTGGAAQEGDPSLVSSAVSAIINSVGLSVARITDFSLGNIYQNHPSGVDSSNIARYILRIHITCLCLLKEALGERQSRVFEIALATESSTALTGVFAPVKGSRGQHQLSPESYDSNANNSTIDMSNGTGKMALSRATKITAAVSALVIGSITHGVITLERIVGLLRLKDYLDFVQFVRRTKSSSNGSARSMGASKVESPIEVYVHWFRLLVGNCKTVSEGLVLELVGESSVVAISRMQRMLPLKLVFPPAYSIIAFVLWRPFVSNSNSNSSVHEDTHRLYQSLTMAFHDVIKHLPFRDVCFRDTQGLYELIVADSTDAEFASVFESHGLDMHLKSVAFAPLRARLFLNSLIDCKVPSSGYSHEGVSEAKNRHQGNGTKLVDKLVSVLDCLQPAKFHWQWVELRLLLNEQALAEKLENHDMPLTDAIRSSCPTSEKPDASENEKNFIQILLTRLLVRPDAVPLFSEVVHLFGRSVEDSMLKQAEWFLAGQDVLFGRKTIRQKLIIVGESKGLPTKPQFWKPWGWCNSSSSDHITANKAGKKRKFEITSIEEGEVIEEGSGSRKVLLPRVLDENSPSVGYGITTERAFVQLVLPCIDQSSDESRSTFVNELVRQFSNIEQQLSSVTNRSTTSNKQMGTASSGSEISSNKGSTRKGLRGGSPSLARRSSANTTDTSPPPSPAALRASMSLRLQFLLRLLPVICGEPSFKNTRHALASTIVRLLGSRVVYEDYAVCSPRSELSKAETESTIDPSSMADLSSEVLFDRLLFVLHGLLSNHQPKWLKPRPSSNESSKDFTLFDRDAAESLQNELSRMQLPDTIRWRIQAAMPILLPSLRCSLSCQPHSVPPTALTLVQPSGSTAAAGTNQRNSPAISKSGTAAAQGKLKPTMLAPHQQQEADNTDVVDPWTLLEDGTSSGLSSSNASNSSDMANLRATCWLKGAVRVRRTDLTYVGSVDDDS", "UniProt Q9FMV4": "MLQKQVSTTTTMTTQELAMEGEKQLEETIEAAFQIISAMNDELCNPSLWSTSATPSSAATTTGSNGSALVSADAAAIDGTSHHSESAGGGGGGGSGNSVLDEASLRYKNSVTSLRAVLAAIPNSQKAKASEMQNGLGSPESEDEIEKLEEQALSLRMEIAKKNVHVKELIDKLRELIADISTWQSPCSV", "UniProt Q8RWA2": "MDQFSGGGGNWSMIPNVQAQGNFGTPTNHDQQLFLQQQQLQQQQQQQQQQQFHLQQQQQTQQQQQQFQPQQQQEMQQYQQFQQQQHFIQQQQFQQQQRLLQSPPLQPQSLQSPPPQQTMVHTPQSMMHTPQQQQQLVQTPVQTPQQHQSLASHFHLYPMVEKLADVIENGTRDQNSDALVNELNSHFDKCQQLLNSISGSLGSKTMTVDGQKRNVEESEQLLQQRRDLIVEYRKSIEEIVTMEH", "UniProt Q9SQR8": "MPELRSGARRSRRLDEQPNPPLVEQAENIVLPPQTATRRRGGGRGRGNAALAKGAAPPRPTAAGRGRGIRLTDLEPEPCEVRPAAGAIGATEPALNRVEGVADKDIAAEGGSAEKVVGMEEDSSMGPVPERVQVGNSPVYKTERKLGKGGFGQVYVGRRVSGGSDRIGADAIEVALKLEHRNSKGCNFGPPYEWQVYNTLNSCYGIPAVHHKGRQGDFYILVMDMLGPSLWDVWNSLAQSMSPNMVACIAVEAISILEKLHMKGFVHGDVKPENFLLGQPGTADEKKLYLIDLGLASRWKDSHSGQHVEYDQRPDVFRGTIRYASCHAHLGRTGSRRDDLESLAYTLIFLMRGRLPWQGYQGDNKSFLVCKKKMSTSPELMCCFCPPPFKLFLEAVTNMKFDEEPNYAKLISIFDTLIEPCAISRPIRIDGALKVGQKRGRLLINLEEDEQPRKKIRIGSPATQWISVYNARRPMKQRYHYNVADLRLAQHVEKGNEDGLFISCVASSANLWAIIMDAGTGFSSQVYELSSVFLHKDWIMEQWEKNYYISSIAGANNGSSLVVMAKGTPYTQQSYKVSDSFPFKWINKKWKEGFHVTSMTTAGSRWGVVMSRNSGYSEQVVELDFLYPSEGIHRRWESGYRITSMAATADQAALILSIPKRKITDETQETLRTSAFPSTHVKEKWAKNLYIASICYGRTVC", "UniProt Q9SJZ6": "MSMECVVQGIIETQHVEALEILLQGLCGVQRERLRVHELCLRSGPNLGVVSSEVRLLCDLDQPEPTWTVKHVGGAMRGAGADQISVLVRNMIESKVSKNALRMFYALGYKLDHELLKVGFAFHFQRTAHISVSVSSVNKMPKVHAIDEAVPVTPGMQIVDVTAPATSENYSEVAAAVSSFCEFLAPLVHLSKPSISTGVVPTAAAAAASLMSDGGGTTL", "UniProt F4JGZ1": "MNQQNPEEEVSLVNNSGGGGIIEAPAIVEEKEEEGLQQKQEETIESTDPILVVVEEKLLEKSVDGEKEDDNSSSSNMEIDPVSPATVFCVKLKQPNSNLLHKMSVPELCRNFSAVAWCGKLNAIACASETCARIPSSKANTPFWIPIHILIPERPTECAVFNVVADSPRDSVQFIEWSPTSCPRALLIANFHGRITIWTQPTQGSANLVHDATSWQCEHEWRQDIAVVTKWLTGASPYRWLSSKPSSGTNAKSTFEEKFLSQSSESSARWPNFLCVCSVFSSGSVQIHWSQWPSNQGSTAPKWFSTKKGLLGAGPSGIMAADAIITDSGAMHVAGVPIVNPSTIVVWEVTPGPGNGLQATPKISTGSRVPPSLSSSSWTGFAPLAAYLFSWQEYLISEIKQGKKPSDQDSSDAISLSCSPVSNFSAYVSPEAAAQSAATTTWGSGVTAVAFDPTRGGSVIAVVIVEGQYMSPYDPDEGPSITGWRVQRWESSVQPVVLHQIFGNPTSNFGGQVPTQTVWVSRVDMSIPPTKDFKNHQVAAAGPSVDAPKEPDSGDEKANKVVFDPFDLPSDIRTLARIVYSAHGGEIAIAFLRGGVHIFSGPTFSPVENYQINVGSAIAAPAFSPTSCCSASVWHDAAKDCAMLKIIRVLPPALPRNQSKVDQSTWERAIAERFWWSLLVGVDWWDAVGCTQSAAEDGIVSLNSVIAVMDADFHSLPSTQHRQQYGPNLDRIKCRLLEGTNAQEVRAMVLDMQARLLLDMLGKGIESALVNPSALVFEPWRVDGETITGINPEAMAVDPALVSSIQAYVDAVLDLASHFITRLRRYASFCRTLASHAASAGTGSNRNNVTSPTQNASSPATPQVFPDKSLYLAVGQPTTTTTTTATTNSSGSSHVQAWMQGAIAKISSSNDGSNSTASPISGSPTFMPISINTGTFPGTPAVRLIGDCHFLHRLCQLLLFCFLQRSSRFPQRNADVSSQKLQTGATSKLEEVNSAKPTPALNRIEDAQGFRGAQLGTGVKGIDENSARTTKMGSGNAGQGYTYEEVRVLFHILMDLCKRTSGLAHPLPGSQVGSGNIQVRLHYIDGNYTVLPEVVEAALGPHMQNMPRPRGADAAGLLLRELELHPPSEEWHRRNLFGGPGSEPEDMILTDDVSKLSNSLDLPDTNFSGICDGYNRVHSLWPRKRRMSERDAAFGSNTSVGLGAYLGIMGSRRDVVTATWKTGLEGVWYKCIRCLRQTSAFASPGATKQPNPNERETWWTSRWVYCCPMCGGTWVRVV", "UniProt Q84VW5": "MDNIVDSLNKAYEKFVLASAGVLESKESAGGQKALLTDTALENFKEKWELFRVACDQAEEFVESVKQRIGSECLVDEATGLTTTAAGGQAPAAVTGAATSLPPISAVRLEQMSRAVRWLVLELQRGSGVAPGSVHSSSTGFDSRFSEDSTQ", "UniProt Q4V3C1": "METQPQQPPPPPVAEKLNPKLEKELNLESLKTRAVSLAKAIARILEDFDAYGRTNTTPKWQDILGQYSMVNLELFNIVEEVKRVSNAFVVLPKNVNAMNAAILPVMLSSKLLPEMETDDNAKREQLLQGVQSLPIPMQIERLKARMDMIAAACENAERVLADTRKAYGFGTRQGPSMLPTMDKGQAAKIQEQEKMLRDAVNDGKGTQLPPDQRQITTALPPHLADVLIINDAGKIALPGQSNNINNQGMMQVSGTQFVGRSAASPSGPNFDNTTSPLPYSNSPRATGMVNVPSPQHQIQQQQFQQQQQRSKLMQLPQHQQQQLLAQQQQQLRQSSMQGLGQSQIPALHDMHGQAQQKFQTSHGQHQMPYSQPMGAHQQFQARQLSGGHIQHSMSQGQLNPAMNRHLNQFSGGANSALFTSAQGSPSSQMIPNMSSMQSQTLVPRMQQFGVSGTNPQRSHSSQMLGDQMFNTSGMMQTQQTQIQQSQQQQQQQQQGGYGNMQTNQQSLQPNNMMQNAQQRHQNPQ"}, "source": "paper doi:10.1101/2024.01.26.577166", "biological_target": "T1, AtMED25-GFP (35S:AtMED25-GFP plants) (Arabidopsis thaliana) (UniProt Q7XYY2)", "T1 sequence": "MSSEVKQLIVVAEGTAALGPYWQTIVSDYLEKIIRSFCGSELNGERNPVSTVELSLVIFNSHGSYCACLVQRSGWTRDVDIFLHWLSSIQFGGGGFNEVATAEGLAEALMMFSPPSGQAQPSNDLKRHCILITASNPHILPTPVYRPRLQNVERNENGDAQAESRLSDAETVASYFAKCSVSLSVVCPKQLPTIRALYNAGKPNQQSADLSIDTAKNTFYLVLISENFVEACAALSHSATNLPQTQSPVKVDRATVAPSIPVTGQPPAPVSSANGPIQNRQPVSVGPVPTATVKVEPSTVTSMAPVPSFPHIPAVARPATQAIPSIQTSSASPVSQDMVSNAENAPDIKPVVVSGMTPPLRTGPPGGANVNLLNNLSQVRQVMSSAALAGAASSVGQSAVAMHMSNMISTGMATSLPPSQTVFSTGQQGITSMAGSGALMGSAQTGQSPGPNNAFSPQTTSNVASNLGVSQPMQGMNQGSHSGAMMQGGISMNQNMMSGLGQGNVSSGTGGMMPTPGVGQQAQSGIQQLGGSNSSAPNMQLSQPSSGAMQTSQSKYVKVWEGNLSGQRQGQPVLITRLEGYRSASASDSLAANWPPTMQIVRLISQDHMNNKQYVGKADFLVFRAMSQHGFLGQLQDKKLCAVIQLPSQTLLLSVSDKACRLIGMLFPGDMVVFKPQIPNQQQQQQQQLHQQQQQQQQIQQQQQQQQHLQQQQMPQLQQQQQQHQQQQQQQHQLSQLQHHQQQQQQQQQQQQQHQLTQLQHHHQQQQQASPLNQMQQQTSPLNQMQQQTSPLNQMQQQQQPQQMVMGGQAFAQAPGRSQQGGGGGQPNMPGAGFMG", "test": "affinity purification with mass spectrometry", "note": "Results are given in words; binding and its absence hold for the method and conditions named. Binding seen in cells or lysates may run through a third protein. A yes stands for co-enrichment or nearness to the bait. Other partners may have been found. Tags and fused reporters may be left off the sequences shown.", "data": [{"molecule": "AtMED3 (endogenous) (from UniProt Q8RWM3)", "values": [{"measurement": "binding", "result": "binds"}]}, {"molecule": "AtMED22A (endogenous)", "values": [{"measurement": "binding", "result": "binds"}]}, {"molecule": "AtMED12 (endogenous) (from UniProt H3K2Y6)", "values": [{"measurement": "binding", "result": "binds"}]}, {"molecule": "AtMED30 (endogenous) (from UniProt Q9FMV4)", "values": [{"measurement": "binding", "result": "binds"}]}, {"molecule": "AtMED9 (endogenous) (from UniProt Q8RWA2)", "values": [{"measurement": "binding", "result": "binds"}]}, {"molecule": "AtMED13 (endogenous) (from UniProt F4I096)", "values": [{"measurement": "binding", "result": "binds"}]}, {"molecule": "ELKS2 (endogenous)", "values": [{"measurement": "binding", "result": "binds"}]}, {"molecule": "AEL3 (endogenous) (from UniProt Q9SQR8)", "values": [{"measurement": "binding", "result": "binds"}]}, {"molecule": "ELKS1 (endogenous)", "values": [{"measurement": "binding", "result": "binds"}]}, {"molecule": "AtMED18 (endogenous) (from UniProt Q9SJZ6)", "values": [{"measurement": "binding", "result": "binds"}]}, {"molecule": "C3H44 (endogenous) (from UniProt Q9SD34)", "values": [{"measurement": "binding", "result": "binds"}]}, {"molecule": "AtMED16 (endogenous) (from UniProt F4JGZ1)", "values": [{"measurement": "binding", "result": "binds"}]}, {"molecule": "AtMED32 (endogenous) (from UniProt Q84VW5)", "values": [{"measurement": "binding", "result": "binds"}]}, {"molecule": "AtMED8 (endogenous) (from UniProt Q4V3C1)", "values": [{"measurement": "binding", "result": "binds"}]}, {"molecule": "ATRBP45C (endogenous) (protein, UniProt Q93W34 1-415) MMQQPPPASNGAATGPGQIPSDQQAYLQQQQSWMMQHQQQQQGQPPAGWNQQSAPSSGQPQQQQYGGGGSQNPGSAGEIRSLWIGDLQPWMDENYLMNVFGLTGEATAAKVIRNKQNGYSEGYGFIEFVNHATAERNLQTYNGAPMPSSEQAFRLNWAQLGAGERRQAEGPEHTVFVGDLAPDVTDHMLTETFKAVYSSVKGAKVVNDRTTGRSKGYGFVRFADESEQIRAMTEMNGQYCSSRPMRTGPAANKKPLTMQPASYQNTQGNSGESDPTNTTIFVGAVDQSVTEDDLKSVFGQFGELVHVKIPAGKRCGFVQYANRACAEQALSVLNGTQLGGQSIRLSWGRSPSNKQTQPDQAQYGGGGGYYGYPPQGYEAYGYAPPPQDPNAYYGGYAGGGYGNYQQPGGYQQQQQ", "values": [{"measurement": "binding", "result": "binds"}]}, {"molecule": "AtMED21 (endogenous) (protein, UniProt C0LU16 1-139) MDIISQLQEQVNTIAAITFNAFGTLQRDAPPVQLSPNYPEPPATTTVTDDATPFPEQPKQLSAGLVKAAKQFDALVAALPLSEGGEGAQLKRIAELQVENDLVGQELQKQLEAAEKELKQVQELFGQAADNCLNMKKPE", "values": [{"measurement": "binding", "result": "binds"}]}, {"molecule": "TOM1-LIKE 6 (endogenous) (protein, UniProt O80910 1-671) MASSSASATVAVDKATSDLLLGPDWTTNMEICDSVNSLHWQAKDVVKAVKKRLQHKSSRVQLLALTLLETLVKNCGDYLHHQVAEKNILGEMVKIVKKKADMQVRDKILVMVDSWQQAFGGPEGKYPQYYWAYDELRRSGVEFPRRSPDASPIITPPVSHPPLRQPQGGYGVPPAGYGVHQAGYGVPQAGYGIPQAGYGVPQAGYGIPQVGYGMPSGSSRRLDEAMATEVEGLSLSSIESMRDVMDLLGDMLQAVDPSDREAVKDEVIVDLVERCRSNQKKLMQMLTSTGDDELLGRGLDLNDSLQILLAKHDAIASGSPLPVQASGSPLSVQASKPADSSPKSSEAKDSSSIAGSSSPIPATVSTGKSPIDEEYEEEEDEFAQLARRHSKPPASVTTDPTSLESHNAASNALALALPDPPPPVNTTKEQDMIDLLSITLCTPSTPPAPSSQPSPPPPAGSDQNTHIYPQPQPRFDSYVAPWAQQQQPQQPQAQQGYSQHQQHQQQQGYSQPQHSQQQQGYSQLQQPQPQQGYSQSQPQAQVQMQPSTRPQNPYEYPPPPWASTSANAYYTPRANASASYTDTSALAGRSLQQSNSFPTRAGDPQATSTASNSGVSVGQKPFVPSYRLFEDLDVFGSADGKHNKPANSSNGSQNLSGSQTQQSMIGGRKMI", "values": [{"measurement": "binding", "result": "binds"}]}, {"molecule": "MBR1 (endogenous) (protein, UniProt Q9ZQF9 1-704) MNPMQGPRSIGGSSTEVNQVDGESIYCTETSLNTMLNPADTGFPNNSTPSGRPTYASSSSHAAQDHTWWRFGESSSIPGPSDQVNSIGIKTSHQLPQDGTHHFVGYGSEGRQTGLNGMMVDGGVHAGSHIRNVPSFLRGSSSNPMPQHVDMSMDMDSDNCNAQTSGVVIRHNSYGSSLGSSVQAAGESSSGPASPFGGWGSSCKRKALEGSPSHYFSGETPNRIVQTENSASHASLSQYGASSSLSLATPSQSSPNVTNHFGRTEQMFGSGGGRAVAASAFHSTRNTDTLSRAGRRLNPRQPQESVAFSVSHGGTSVRPTGSLQQNLPLNSPFVDPPDVRSSSITSGSNTGENQTNIVHLPALTRNIHQYAWDASFSSRASNPSGIGMPAERLGPQWETPRSNQEQPLFAPATDMRQPVHDLWNFARGSPGSSVDSLFVPRAGPSSAIHTPQPNPTWIPPQNAPPHNPSRTSELSPWSLFPSIESPSASHGGPLPLLPAGPSVSSNEVTMPSSSNSRSHRSRHRRSGLLLERQNELLHLRHIGRSLAADGNGRNQIISEIRQVLHAMRRGENLRVEDYMVFDPLIYQGMTDMHDRHREMRLDVDNMSYEELLALGERIGDVSTGLSEEVILKAMKQHKHTSSSPSSVELHQNIEPCCICQEEYVEGDNLGTLKCGHEFHKDCIKQWVMIKNLCPICKTEALKTP", "values": [{"measurement": "binding", "result": "binds"}]}, {"molecule": "CDKE (endogenous) (protein, UniProt Q84TI6 1-470) MGDGSSSRSNSSNSTSEKPEWLQQYNLVGKIGEGTYGLVFLARTKTPPKRPIAIKKFKQSKDGDGVSPTAIREIMLLREISHENVVKLVNVHINFADMSLYLAFDYAEYDLYEIIRHHRDKVGHSLNTYTVKSLLWQLLNGLNYLHSNWIIHRDLKPSNILVMGDAEEHGIVKIADFGLARIYQAPLKPLSDNGVVVTIWYRAPELLLGSKHYTSAVDMWAVGCIFAELLTLKPLFQGAEAKSSQNPFQLDQLDKIFKILGHPTMDKWPTLVNLPHWQNDVQHIQAHKYDSVGLHNVVHLNQKSPAYDLLSKMLEYDPLKRITASQALEHEYFRMDPLPGRNAFVASQPMEKNVNYPTRPVDTNTDFEGTTSINPPQAVAAGNVAGNMAGAHGMGSRSMPRPMVAHNMQRMQQSQGMMAYNFPAQAGLNPSVPLQQQRGMAQPHQQQQLRRKDPGMGMSGYAPPNKSRRL", "values": [{"measurement": "binding", "result": "binds"}]}, {"molecule": "RAF20 (endogenous) (protein, UniProt Q9SAJ2 1-1248) MDKARHQQLFQHSMEPGYRNETVPQPFMPDQTGSASANMRPPNSNGSDVKAVHNFSIQTGEEFSLEFMRDRVIPQRSSNPNGAGDMNYNTGYMELRGLIGISHTGSECASDVSRFSTVENGTSDIERTNSSLHEFGNKLNHVQSAPQALLSKDSSVGNLHGYKNTSSSASGSVTAKVKILCSFGGKILPRPGDSKLRYVGGETHIISIRKDISWQELRQKILEIYYQTRVVKYQLPGEDLDALVSVSSEEDLQNMLEEYNEMENRGGSQKLRMFLFSISDMDDALLGVNKNDGDSEFQYVVAVNGMDIGSGKNSTLLGLDSSSANNLAELDVRNTEGINTIAGDVVGVGASQLMVNGFQQTSAQQSESIPPSSSLHYSQSIPLNAAYQLQQSVPPSSALHYPQSITPGSSLQYPQSITPGSSYQYPQSIIPGSASSYGIYPQYYGHVVQHGERERFPLYPDHSSNYSAIGETTSSIPIQGHVSQQGGWAEGYPYPGSTPKSTQALAEEQKVSSDMKIREEVEPENRKTPGNDHQNPPQIDDVEVRNHNQVREMAVATTPPSQDAHLLPPSRDPRQNTTAKPATYRDAVITGQVPLSGIEDQLSTSSSTYAPVHSDSESNLIDLNYPEPEQSSQRVYCSERIPREQLELLNRLSKSDNSLSSQFVTSESPANTAQQDSGKEAVGKSHDEFKTVNDDANHHTHKDVETIFEKVGVSDETLESEPLHKIVNPDDANKNRVVNGADTEIGVSNLSHVNAAMSHVIPEEQASLQGDILIDINDRFPRDFLSEIFSQAISEDTSTVRPYPHDGAAVSMNVQNHDRKNWSYFQQLAEDQFIQRDVVLDQADSRIPSDRKDGGESSRLPYVSPLSRDGISTNLANPQLTLGQDYGGNFSEKDGGGTGSIPPALENEQMKVTESEEFGAMVENLRTPDSEPKDEKTETRHAALPPLGSEFDYSGLQIIKNEDLEELRELGSGTFGTVYHGKWRGSDVAIKRIKKSCFAGRSSEQERLTGEFWGEAEILSKLHHPNVVAFYGVVKDGPGGTLATVTEYMVDGSLRHVLVRKDRHLDRRKRLIIAMDAAFGMEYLHSKNTVHFDLKCDNLLVNLKDPSRPICKVGDFGLSKIKRNTLVSGGVRGTLPWMAPELLNGSSSKVSEKVDVFSFGIVLWEILTGEEPYANMHYGAIIGGIVNNTLRPTIPGFCDDEWRTLMEECWAPNPMARPSFTEIAGRLRVMSSAATSTQSKPSAHRASK", "values": [{"measurement": "binding", "result": "binds"}]}, {"molecule": "MBR2 (endogenous) (protein, UniProt O49500 1-666) MQGPRSTGDSSTGINYADGEPICSTNSETTSNNILNPVDVQFPNNTTGSGRPTYASSSSHVVQNHNWWSFGESSSRLGPSDHLNSNGSKTDRQLLSDGYGFEEGQSGMLLPGESFLRGSSSSHMLSHVNLGKDMDIGSGLQTSGVVIRHNNCETSLGSSSQTAEERSSGPGSSLGGLGSSCKRKALEGAPSHSFPGESHGCFFQTENGAWNEGLAQYDASSSLSLSMPSQNSPNVNNQSGLPEPRFGLGGGRAVTASAFPSTRSTETISRPGRRLNPGQPPESVAFSFTQSGSSVRQQQQLPATSPFVDPLDARAIPVTGSSSSGDGQPSMIHLPALTRNIHQFAWSASSSSRANSMPEEGLSPWDAPRINSEQPVFTTPANETRNPVQDQFCWSFTRGNPSTSGDSPFVPRAGSSSGIHGLQPNPTWVTPHNQSRISEVAPWSLFPSIESESATHGASLPLLPTGPSVSSNEAAAPSGSSSRSHRSRQRRSGLLLERQNDHLHLRHLGRSLAADNDGRNRLISEIRQVLSAMRRGENLRFEDYMVFDPLIYQGMAEMHDRHRDMRLDVDNMSYEELLALGERIGDVSTGLSEEVILKVMKQHKHTSSAAGSHQDMEPCCVCQEEYAEGDDLGTLGCGHEFHTACVKQWLMLKNLCPICKTVALST", "values": [{"measurement": "binding", "result": "binds"}]}]}
